Laboratory results published in the supplement of paper PMC10849652.
The list shows a part of the results.

Sequences of proteins named here, by UniProt entry; tags and fusion partners are left off. A change or cut given only in a name is not applied to a line headed by its entry.
UniProt P26885: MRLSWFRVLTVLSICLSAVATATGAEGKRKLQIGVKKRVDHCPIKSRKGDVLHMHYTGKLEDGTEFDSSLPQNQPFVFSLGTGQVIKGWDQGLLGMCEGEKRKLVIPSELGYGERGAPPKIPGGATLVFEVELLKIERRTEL
UniProt Q8N3Y1: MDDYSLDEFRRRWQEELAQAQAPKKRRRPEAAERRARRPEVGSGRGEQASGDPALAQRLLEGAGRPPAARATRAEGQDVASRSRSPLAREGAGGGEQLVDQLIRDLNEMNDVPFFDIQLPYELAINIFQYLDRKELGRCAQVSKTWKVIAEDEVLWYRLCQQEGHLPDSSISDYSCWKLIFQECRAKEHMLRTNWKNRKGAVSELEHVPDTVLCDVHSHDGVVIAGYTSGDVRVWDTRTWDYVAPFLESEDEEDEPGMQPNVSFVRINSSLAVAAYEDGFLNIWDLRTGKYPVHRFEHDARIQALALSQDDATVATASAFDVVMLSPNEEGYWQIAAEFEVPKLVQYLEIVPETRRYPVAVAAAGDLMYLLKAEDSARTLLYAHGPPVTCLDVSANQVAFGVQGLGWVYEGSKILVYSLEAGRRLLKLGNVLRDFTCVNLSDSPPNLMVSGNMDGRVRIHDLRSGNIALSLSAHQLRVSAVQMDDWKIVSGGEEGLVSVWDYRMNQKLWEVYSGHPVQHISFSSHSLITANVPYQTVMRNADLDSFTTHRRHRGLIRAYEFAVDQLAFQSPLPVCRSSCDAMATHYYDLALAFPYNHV
UniProt Q6ZV73: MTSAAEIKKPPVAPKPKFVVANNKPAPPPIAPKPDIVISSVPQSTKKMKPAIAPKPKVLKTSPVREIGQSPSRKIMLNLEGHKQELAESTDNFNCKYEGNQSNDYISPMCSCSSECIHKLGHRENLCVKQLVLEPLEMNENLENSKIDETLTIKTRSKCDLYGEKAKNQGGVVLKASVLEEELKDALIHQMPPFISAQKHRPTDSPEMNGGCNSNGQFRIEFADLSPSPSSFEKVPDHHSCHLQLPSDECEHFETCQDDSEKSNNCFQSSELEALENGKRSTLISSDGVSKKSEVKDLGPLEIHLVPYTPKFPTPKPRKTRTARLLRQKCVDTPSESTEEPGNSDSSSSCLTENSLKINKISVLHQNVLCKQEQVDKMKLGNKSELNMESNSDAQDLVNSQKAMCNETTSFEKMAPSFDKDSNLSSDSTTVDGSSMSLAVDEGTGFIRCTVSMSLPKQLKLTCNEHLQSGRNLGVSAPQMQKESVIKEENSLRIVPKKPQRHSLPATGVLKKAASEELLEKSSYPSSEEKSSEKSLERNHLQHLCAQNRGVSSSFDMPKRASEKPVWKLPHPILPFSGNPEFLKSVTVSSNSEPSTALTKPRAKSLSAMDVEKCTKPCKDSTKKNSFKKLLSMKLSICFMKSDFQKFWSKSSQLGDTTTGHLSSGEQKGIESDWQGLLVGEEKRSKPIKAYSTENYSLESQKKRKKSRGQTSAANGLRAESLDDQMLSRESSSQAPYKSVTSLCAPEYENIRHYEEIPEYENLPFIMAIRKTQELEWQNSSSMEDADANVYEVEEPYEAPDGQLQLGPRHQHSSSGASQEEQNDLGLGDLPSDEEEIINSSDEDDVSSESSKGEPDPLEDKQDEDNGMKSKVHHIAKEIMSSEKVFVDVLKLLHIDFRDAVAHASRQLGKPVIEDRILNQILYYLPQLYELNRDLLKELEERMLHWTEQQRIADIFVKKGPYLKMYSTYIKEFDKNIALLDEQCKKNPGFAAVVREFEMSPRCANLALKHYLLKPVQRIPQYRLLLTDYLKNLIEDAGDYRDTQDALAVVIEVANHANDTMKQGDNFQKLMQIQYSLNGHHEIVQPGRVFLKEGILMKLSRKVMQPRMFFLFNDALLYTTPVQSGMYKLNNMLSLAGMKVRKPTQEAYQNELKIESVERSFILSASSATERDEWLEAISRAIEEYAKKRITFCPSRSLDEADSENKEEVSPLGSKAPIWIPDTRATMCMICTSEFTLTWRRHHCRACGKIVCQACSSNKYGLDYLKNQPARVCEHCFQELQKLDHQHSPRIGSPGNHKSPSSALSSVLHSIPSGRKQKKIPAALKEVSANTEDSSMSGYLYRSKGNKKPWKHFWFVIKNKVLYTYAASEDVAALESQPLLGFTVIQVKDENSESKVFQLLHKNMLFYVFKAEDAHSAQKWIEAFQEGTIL
UniProt Q9UHY8: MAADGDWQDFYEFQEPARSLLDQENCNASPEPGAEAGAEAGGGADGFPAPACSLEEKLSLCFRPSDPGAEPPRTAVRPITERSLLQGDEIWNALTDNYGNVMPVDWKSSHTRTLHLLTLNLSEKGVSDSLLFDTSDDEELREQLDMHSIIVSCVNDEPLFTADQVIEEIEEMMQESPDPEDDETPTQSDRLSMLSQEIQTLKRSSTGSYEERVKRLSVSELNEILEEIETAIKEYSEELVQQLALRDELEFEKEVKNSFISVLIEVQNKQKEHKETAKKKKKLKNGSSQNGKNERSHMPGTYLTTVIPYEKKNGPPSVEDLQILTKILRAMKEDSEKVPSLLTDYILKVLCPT
UniProt Q9NXK8: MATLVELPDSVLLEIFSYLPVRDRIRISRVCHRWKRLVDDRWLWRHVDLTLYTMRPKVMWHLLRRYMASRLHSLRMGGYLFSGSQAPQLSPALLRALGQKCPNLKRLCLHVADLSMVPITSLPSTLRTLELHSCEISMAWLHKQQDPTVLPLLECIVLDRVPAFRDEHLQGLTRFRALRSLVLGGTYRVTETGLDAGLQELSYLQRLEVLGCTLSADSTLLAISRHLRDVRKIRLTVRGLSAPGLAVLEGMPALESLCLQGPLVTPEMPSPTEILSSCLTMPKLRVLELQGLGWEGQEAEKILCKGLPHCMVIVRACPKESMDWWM
UniProt Q8IVF7, whole entry, looked up: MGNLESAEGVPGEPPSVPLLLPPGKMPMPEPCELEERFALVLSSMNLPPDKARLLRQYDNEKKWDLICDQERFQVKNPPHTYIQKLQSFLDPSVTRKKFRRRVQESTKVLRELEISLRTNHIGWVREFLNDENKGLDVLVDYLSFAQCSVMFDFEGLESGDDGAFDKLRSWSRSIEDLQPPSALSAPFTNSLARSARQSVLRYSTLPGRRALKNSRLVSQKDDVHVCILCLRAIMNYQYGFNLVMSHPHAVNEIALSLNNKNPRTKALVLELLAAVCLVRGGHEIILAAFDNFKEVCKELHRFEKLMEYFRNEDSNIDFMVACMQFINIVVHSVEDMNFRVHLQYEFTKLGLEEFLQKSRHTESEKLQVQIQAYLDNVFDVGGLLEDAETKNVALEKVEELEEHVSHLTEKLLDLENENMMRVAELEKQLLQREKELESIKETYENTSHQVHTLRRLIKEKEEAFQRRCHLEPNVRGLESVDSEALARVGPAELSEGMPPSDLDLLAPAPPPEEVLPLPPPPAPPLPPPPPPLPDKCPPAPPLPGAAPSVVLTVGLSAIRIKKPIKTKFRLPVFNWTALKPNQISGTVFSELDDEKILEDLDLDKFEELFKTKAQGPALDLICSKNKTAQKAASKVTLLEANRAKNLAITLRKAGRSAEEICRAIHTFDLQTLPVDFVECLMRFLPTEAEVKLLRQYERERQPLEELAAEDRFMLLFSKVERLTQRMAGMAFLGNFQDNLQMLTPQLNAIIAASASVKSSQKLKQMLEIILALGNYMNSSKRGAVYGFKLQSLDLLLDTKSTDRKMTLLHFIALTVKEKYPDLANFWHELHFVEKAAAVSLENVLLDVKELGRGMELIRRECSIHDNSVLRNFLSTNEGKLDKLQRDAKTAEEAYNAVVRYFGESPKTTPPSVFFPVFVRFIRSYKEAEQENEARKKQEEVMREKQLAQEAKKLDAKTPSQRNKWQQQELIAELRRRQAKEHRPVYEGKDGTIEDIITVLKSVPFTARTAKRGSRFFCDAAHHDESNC
UniProt Q9Y4F1: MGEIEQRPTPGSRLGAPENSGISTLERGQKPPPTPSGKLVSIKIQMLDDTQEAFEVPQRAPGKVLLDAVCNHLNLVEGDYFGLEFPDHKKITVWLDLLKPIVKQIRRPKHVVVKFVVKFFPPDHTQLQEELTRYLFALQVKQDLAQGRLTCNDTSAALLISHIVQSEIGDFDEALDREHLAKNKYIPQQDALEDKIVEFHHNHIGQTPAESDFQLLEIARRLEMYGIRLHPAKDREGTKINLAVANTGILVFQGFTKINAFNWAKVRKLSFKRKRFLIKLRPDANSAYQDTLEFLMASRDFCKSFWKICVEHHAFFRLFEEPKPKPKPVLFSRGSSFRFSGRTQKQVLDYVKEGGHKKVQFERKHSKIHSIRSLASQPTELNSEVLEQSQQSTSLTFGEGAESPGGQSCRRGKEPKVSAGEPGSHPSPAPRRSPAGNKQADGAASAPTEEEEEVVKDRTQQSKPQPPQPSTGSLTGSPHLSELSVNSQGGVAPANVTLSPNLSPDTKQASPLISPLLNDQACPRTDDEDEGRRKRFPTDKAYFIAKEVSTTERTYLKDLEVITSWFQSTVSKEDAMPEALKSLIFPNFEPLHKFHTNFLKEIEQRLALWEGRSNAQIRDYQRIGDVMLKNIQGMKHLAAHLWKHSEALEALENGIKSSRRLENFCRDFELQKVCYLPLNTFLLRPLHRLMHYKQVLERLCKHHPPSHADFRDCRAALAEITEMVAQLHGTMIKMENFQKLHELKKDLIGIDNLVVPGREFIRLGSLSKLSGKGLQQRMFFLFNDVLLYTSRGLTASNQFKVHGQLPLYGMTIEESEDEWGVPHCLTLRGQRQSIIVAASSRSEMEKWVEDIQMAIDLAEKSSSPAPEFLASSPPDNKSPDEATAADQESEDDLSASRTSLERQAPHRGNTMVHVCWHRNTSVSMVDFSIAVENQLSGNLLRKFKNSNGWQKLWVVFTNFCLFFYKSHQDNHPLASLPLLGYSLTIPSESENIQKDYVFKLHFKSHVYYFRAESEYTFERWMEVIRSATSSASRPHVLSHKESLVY
UniProt Q9P0K8: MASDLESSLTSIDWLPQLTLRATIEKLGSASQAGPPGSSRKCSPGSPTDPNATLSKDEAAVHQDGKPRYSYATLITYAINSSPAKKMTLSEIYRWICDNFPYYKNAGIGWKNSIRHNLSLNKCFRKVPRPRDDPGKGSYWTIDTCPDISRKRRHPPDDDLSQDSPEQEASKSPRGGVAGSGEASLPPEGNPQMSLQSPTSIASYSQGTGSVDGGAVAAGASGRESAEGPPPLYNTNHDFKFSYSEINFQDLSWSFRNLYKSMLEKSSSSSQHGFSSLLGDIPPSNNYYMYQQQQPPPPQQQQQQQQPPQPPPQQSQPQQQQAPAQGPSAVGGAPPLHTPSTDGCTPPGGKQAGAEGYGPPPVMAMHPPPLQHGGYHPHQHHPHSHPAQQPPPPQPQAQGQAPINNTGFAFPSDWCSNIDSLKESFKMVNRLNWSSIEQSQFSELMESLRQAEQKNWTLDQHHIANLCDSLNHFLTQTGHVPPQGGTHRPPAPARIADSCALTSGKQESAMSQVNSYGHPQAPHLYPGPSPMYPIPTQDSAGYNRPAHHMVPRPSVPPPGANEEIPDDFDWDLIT
UniProt Q96PY5, whole entry, looked up: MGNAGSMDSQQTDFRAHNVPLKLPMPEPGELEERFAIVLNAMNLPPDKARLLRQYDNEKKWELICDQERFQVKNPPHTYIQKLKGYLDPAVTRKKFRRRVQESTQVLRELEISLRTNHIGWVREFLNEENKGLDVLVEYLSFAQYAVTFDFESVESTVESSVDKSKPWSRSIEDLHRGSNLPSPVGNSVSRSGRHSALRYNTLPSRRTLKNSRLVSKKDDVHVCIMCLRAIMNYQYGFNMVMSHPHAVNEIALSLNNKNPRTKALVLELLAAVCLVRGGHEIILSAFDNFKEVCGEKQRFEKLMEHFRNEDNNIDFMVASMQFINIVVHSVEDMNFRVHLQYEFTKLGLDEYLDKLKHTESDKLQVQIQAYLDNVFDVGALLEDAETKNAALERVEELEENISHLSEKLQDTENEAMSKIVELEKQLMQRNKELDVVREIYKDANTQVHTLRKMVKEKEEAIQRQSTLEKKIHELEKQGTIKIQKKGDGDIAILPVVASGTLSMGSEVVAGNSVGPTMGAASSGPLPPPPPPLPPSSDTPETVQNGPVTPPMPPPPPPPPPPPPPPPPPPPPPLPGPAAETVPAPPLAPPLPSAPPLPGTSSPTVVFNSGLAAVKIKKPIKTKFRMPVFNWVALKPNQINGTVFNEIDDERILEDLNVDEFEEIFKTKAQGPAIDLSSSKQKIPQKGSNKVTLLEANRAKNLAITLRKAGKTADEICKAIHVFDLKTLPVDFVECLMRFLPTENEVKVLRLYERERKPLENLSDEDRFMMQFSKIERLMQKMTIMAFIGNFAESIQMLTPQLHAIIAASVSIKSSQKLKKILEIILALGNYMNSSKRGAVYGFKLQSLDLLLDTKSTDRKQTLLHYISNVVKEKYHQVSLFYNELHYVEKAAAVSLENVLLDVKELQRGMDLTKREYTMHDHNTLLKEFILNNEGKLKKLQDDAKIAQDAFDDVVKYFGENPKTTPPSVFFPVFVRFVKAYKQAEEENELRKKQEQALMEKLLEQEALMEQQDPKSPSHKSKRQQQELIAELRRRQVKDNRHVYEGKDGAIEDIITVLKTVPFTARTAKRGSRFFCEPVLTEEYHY

compound: C=CC(=O)N1CCC[C@@H](n2nc(-c3ccc(Oc4ccccc4)cc3)c3c(N)ncnc32)C1 [ibrutinib]; test: log2 fold change, soluble protein after heating vs DMSO (PISA); higher = thermal stabilisation; K562 lysate, 10 uM; active = over 0.2 and 3.5 SD of the protein, either way, in both replicates (recomputed)
Summary of the method: (§1)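 To prepare the extract, K562 pellets were dounce-homogenised in PBS pH 7.4 with 1 mM MgCl2, giving crude material at 1 mg/mL protein. This was treated with 10 μM compound for 30 min, then heated in aliquots for 3 min over 48°C-58°C before pooling and addition of NP-40 to 0.5% at 4°C. Centrifugation at 21,000xg for 90 min left soluble protein in the supernatant, which TMTpro 16plex LC-MS/MS quantified with equalised channel sums. Results are log-two fold changes in thermal stability compared with solvent controls, from duplicates.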

Row | Target | log2 fold change
1 | FBXW2 (UniProt Q9UKT8) | inactive: -0.029
2 | FKBP2 (UniProt P26885) | inactive: -0.028
3 | FBXW11 (UniProt Q9UKB1) | inactive: 0.008
4 | FOPNL (UniProt Q96NB1) | inactive: 0.165
5 | FMC1 (UniProt Q96HJ9) | inactive: -0.071
6 | FMR1 isoform 9 (UniProt Q06787) | inactive: 0.105
7 | FAM86B2 (UniProt P0C5J1) | inactive: -0.019
8 | FBXW8 (UniProt Q8N3Y1) | inactive: -0.457
9 | FGD6 (UniProt Q6ZV73) | inactive: -0.472
10 | FEZ2 isoform 2 (UniProt Q9UHY8) | inactive: -0.021
11 | FNBP4 isoform 2 (UniProt Q8N3X1) | inactive: 0.002
12 | FBH1 isoform 2 (UniProt Q8NFZ0) | inactive: -0.037
13 | FIZ1 (UniProt Q96SL8) | inactive: 0.07
14 | FBRSL1, A0A3B3IRR3 | inactive: 0.072
15 | FAT2 (UniProt Q9NYQ8) | inactive: 0.01
16 | FBXL12 (UniProt Q9NXK8) | inactive: -0.034
17 | FARS2 (UniProt O95363) | inactive: 0.007
18 | FBXO45 (UniProt P0C2W1) | inactive: 0.207
19 | FMNL3 (UniProt Q8IVF7) | inactive: 0.038
20 | FBXO46 (UniProt Q6PJ61) | inactive: 0.001
21 | FITM2 (UniProt Q8N6M3) | inactive: -0.059
22 | FBLN1 (UniProt P23142) | inactive: -0.065
23 | FBXO44 isoform 2 (UniProt Q9H4M3) | inactive: 0.09
24 | FARP1 isoform 2 (UniProt Q9Y4F1) | inactive: -0.087
25 | FOXJ2 (UniProt Q9P0K8) | inactive: -0.045
26 | FLT4 (UniProt P35916) | inactive: 0.062
27 | FBRS (UniProt J3KNZ9) | inactive: -0.044

compound: CC(=O)c1cnc2ccc(-c3cc(Cl)c(O)c(Cl)c3)nc2c1N[C@H]1CC[C@H](CN(C)C)CC1; test: as above
Summary of the method: as §1

Row | Target | log2 fold change
28 | FKBP2 (UniProt P26885) | inactive: -0.022
29 | FHAD1 isoform 3 (UniProt B1AJZ9) | inactive: -0.139
30 | FBXW11 (UniProt Q9UKB1) | inactive: -0.113
31 | FKRP (UniProt Q9H9S5) | inactive: 0.114
32 | FOPNL (UniProt Q96NB1) | inactive: -0.081
33 | FMC1 (UniProt Q96HJ9) | inactive: -0.06
34 | FMR1 isoform 9 (UniProt Q06787) | inactive: 0.011
35 | FAM86B2 (UniProt P0C5J1) | inactive: -0.195
36 | FBXW8 (UniProt Q8N3Y1) | inactive: 0.213
37 | FGD6 (UniProt Q6ZV73) | inactive: -0.492
38 | FEZ2 isoform 2 (UniProt Q9UHY8) | inactive: 0.043
39 | FANCC (UniProt Q00597) | inactive: -0.048
40 | FNBP4 isoform 2 (UniProt Q8N3X1) | inactive: -0.007
41 | FMNL2 isoform 3 (UniProt Q96PY5) | inactive: -0.048
42 | FIZ1 (UniProt Q96SL8) | inactive: 0.187
43 | FAT2 (UniProt Q9NYQ8) | inactive: 0.057
44 | FBXL12 (UniProt Q9NXK8) | inactive: 0.016
45 | FARS2 (UniProt O95363) | inactive: -0.412
46 | FBXO45 (UniProt P0C2W1) | inactive: 0.075
47 | FMNL3 (UniProt Q8IVF7) | inactive: 0.005
48 | FBXO46 (UniProt Q6PJ61) | inactive: -0.053
49 | FITM2 (UniProt Q8N6M3) | inactive: 0.012
50 | FEM1A (UniProt Q9BSK4) | inactive: -0.028
51 | FIP1L1 isoform 3 (UniProt Q6UN15) | inactive: -0.152
52 | FBXO44 isoform 2 (UniProt Q9H4M3) | inactive: 0.064
53 | FLT4 (UniProt P35916) | inactive: 0.064
